Results deposited as PubChem BioAssay AID1053208 (Peter MacCallum Cancer Centre, 2014)

Test: 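Synthetic lethal interactions between gene loss and doxorubicin in osteosarcoma cells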 (primary screen)
Cells: mouse osteosarcoma cells, early-passage culture from an engineered mouse model of fibroblastic bone tumour
Knock-down reagent: siRNA pool against mouse genes, 40 nM
Duration: about 120 h (48 h before drug, then 72 h with drug)
Treatment: doxorubicin 100 nM for 72 h, roughly 30-40% inhibitory dose
Read-out: 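Viability read as ATP luminescence after 72 h of 100 nM doxorubicin or none, duplicate wells averaged, scaled to non-targeting siRNA, then expressed as robust z-scores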
Reading the numbers: viability z-score with doxorubicin and doxorubicin viability vs non-targeting: higher = more viable cells under doxorubicin; viability z-score without drug: higher = more viable cells with knock-down alone; z-score of drug to no-drug ratio: higher = less drug sensitisation by knock-down
Hit rule: 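Called active if knock-down leaves viability unchanged without drug (z within -2 to 2) but lowers it with doxorubicin (z at or under -2)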
In all, the deposit lists about 17,000 reagents; below is a part drawn at random. 788 of them (4.7%) count as active. 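Calls rest on z-score classes alone; an extra cut-off of viability at most 70% of control was not applied to them.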

no.	gene	combined z-score class	viability z-score with doxorubicin	viability z-score without drug	z-score of drug to no-drug ratio	doxorubicin viability vs non-targeting	Call
1	Or4p22	no change with or without drug	0	-1.35	1.12	0.94	inactive
2	Ankle1	no change with or without drug	0.22	0.84	-0.22	0.96	inactive
3	Ivl	no change with or without drug	-1.24	-0.51	-0.9	0.83	inactive
4	Gucy1b1	no change with or without drug	0.45	0.17	0.45	0.98	inactive
5	Ephb6	no change with or without drug	0.22	0.34	0.11	0.96	inactive
6	Mro	no change with or without drug	0.34	-1.52	1.69	0.97	inactive
7	Rps27	low cell count with and without drug	-4.95	-2.19	-4.16	0.5	inactive
8	Zfp764	no change with or without drug	-0.45	0.51	-0.67	0.9	inactive
9	Treml6	no change with or without drug	-1.8	-0.51	-1.46	0.78	inactive
10	Tafa3	no change with or without drug	1.01	-0.67	1.69	1.03	inactive
11	Numbl	no change with or without drug	-1.12	-1.35	-0.11	0.84	inactive

Laid out differently: entries from further up.
{"gene":"Zfp764","combined z-score class":"no change with or without drug","viability z-score with doxorubicin":-0.45,"viability z-score without drug":0.51,"z-score of drug to no-drug ratio":-0.67,"doxorubicin viability vs non-targeting":0.9,"Call":"inactive"}
{"gene":"Treml6","combined z-score class":"no change with or without drug","viability z-score with doxorubicin":-1.8,"viability z-score without drug":-0.51,"z-score of drug to no-drug ratio":-1.46,"doxorubicin viability vs non-targeting":0.78,"Call":"inactive"}
{"gene":"Tafa3","combined z-score class":"no change with or without drug","viability z-score with doxorubicin":1.01,"viability z-score without drug":-0.67,"z-score of drug to no-drug ratio":1.69,"doxorubicin viability vs non-targeting":1.03,"Call":"inactive"}

The listing continues.
no.	gene	combined z-score class	viability z-score with doxorubicin	viability z-score without drug	z-score of drug to no-drug ratio	doxorubicin viability vs non-targeting	Call
12	Nop10	no change with or without drug	-1.12	-1.18	-0.34	0.84	inactive
13	Cpap	no change with or without drug	-0.45	-1.85	1.01	0.9	inactive
14	Sec61a1	no change with or without drug	-0.9	-0.84	-0.22	0.86	inactive
15	Prkd1	no change with or without drug	0.9	0.51	0.67	1.02	inactive
16	Smox	no change with or without drug	0.45	1.01	-0.11	0.98	inactive
17	Plcb3	no change with or without drug	0.9	1.18	0.22	1.02	inactive
18	Krt6a	no change with or without drug	0.22	0.17	0.22	0.96	inactive
19	Cntn6	no change with or without drug	-0.67	0.34	-0.79	0.88	inactive
20	Satb1	no change with or without drug	1.46	1.01	0.9	1.07	inactive
